Reference: paper PMC5607287
Results are given in words; binding and its absence hold for the method and conditions named. Some results given as binding are weak or reduced against the parent protein; the word gives no strength.

The chains behind the UniProt entries cited, without tags or fusion partners. Residues count along the entry.
UniProt P46531, residues 19-2555: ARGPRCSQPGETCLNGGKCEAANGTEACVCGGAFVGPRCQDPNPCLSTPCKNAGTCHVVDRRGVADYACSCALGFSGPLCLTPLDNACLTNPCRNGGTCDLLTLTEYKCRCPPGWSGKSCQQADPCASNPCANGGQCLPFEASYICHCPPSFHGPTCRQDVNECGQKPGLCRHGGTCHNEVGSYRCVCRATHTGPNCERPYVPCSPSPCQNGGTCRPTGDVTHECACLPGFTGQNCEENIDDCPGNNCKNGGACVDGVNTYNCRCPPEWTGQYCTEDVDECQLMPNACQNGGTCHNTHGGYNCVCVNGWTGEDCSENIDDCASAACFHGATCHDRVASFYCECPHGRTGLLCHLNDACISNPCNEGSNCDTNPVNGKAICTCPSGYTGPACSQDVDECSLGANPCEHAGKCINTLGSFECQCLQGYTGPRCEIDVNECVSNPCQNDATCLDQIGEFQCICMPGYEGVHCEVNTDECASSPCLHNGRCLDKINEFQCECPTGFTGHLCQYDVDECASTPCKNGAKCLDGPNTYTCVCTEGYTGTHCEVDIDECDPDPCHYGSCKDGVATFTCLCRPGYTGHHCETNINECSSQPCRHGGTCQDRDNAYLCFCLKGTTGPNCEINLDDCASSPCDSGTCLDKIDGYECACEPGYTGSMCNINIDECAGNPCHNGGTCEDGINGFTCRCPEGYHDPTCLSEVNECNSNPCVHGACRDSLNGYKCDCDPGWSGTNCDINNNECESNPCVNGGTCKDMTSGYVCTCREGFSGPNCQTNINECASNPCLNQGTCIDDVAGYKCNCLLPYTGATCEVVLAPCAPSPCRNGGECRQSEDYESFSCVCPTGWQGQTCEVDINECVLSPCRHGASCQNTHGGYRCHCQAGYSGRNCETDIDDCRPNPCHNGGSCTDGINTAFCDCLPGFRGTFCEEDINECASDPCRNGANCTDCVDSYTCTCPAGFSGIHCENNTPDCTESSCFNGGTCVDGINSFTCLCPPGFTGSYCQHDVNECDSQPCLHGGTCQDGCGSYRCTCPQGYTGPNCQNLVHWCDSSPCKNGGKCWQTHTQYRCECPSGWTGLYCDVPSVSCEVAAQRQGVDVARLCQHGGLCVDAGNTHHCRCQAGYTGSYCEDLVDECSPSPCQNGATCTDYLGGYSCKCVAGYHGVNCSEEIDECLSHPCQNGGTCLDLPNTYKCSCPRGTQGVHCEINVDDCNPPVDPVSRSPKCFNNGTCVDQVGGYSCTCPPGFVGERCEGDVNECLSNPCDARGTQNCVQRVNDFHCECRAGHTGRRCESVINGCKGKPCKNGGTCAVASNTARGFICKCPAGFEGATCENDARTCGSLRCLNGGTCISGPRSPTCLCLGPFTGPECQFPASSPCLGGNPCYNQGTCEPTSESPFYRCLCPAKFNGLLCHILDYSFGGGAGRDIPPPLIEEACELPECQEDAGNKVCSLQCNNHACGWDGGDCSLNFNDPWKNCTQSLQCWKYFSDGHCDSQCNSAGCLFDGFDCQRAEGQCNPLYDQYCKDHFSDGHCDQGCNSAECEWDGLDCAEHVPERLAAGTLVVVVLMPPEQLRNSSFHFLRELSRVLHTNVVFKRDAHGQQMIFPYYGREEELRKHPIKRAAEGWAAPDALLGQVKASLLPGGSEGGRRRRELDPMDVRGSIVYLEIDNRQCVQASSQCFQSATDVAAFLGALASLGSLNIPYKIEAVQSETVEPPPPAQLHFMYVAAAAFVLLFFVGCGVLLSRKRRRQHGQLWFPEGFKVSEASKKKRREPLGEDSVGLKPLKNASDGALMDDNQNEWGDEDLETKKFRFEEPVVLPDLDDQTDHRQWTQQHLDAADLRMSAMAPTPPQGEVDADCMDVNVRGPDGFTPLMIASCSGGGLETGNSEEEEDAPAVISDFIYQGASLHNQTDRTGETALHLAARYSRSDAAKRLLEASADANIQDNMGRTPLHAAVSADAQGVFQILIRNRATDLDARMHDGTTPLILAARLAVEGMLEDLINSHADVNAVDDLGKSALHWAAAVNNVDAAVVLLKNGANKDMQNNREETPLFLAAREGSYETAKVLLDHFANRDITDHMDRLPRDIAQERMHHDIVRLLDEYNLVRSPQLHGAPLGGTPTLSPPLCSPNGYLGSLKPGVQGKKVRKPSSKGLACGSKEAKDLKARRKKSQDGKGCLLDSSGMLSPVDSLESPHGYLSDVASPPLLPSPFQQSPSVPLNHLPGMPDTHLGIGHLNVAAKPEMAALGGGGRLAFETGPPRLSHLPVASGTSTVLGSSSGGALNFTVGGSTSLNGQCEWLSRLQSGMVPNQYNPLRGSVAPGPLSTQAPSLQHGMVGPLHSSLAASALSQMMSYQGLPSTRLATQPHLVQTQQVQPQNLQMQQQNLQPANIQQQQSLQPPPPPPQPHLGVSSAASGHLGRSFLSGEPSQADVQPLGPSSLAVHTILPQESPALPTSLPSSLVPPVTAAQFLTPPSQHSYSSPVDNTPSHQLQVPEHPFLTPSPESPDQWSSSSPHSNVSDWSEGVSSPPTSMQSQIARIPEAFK
UniProt P78504, residues 34-1067: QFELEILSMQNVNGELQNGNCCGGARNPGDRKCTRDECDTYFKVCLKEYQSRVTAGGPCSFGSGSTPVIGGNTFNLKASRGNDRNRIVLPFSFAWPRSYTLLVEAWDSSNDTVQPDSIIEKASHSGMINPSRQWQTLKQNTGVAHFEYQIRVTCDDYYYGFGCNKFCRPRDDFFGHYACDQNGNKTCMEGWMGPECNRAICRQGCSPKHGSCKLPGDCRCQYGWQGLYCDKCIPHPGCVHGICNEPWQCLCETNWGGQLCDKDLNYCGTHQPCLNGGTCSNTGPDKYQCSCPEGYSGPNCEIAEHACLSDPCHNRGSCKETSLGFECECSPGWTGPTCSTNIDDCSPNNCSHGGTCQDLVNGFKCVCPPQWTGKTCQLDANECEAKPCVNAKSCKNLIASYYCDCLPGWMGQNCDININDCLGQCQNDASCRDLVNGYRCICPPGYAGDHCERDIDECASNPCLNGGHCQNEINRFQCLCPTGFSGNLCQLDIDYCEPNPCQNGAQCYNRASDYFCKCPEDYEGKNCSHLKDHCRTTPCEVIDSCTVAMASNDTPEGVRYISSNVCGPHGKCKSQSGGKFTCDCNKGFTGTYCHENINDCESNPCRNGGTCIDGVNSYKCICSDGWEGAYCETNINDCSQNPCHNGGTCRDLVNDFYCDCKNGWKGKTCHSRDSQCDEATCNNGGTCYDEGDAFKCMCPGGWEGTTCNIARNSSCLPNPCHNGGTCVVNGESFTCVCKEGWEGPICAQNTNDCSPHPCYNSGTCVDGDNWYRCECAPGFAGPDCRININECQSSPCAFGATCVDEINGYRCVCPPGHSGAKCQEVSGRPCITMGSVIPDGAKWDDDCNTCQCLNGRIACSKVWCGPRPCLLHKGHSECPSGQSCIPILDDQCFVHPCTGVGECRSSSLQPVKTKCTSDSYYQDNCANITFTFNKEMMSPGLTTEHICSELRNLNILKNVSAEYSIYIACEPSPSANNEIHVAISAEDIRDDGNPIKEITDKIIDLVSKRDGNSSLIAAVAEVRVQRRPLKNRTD

Biological target: human Notch1 transiently expressed in HEK293 cells (HEK293-hN1) (human) (UniProt P46531)
Test: flow cytometry on cells; competition: Notch1 transfected HEK293 cells preincubated with 20 uM binders 1 h on ice, then 2 nM JAG1-Fc or DLL4-Fc 1 h; APC anti-Fc; Amnis ImageStream; only the binder purified

- binding: binds
Substance: human recombinant JAG1-Fc (from UniProt P78504 34-1067) (Fc fusion)
